Source: patent publication US20040171692A1, “Modulation of bone formation” (priority 2003, published 2004)
For at least one compound, name, drawing or mass did not settle the structure.

Test system: bone forming cells (whole bone marrow cells, NASP cells, neonatal rat calvariae)
Assay: CFU-f and NASP cell assays in combination with neonatal rat calvarial organ cultures (bone anabolic activity)
Assay type: cell-based
Conditions: compared with PGE2; FIGS. 1-3
Source text: The main reason for the lack of understanding of the cellular basis for the actions of bone anabolic drugs is that there exists, at present, no single in vitro assay which responds to these drugs in an appropriate manner. However, we have now developed a number of assays which, when used in combination with neonatal rat calvarial organ cultures, are able to predict bone anabolic agents.
Whole bone marrow cells (BMC's) were obtained from the tibias and femurs of 125 g male Wistar rats. The bones were removed under aseptic conditions and all soft adherent tissue removed. An end of each bone was removed, a hole made in the opposing end with an 18 gauge syringe needle, and the cells isolated centrifugally [Dobson K. R., et al., Calcif. tissue Int., 65:411-413 (1999)]. […]
After fixation, the cultures were stained for alkaline phosphatase (APase) positive, calcium positive, collagen positive and total colonies as described by Scutt & Bertram (J. Bone and Mineral Res. 10:474-489, 1995). The cultures were then photographed using a digital camera and the APase positive, calcium positive, collagen positive and total colonies quantitated using Bioimage “Intelligent Quantifier” image analysis software [Dobson K., et al., A cost effective method for the automatic quantitative analysis of fibroblastic-colony forming units with osteoblastic potential. […]

| Compound | bone anabolic activity relative to PGE2 |
| --- | --- |
| CC(C)(Oc1ccc(CCNC(=O)c2ccc(Cl)cc2)cc1)C(=O)O [bezafibrate] | superior to that of PGE2 |
| CC(C)OC(=O)C(C)(C)Oc1ccc(C(=O)c2ccc(Cl)cc2)cc1 [fenofibrate] | superior to that of PGE2 |
